# Measurements published in PubChem BioAssay (Tox21).
# Chains of the proteins cited; added tags and fusions are not shown. Lines headed by an entry give the natural chain unless they say otherwise; changes in a name come on top.
# UniProt P11473: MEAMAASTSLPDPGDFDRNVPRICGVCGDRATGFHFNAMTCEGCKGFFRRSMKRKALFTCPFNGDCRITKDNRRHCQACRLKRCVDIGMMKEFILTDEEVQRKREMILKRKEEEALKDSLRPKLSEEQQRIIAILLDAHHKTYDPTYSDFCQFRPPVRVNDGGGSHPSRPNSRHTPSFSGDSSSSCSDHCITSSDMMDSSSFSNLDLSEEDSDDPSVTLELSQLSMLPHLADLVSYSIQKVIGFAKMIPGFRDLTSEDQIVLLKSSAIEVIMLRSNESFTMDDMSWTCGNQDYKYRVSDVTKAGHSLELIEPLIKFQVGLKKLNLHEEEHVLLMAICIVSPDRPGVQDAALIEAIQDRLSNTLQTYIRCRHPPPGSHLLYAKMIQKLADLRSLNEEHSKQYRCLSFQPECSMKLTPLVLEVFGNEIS
# UniProt P19793: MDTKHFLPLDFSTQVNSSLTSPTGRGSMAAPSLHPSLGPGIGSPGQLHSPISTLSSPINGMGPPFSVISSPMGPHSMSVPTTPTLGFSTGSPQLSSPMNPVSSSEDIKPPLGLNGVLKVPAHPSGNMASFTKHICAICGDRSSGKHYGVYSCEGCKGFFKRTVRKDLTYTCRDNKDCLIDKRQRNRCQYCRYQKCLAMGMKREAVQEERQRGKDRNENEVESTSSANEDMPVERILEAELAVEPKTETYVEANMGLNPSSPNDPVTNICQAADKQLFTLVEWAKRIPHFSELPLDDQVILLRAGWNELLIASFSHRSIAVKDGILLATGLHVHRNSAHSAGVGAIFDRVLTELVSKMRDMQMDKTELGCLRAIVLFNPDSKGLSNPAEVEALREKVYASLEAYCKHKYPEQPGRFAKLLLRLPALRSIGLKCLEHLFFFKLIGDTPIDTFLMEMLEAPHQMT
# UniProt Q03181: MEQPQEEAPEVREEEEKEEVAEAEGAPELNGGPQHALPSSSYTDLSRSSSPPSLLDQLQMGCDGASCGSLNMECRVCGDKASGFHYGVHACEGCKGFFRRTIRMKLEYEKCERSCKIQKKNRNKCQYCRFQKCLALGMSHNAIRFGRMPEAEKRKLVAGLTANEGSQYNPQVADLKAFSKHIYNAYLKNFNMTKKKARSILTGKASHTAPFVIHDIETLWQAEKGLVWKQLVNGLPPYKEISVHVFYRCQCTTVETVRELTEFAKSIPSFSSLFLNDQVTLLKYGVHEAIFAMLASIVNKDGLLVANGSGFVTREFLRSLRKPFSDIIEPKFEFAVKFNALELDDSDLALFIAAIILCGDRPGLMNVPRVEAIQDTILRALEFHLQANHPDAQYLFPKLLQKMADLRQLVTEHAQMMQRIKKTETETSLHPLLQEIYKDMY
# UniProt Q96RI1: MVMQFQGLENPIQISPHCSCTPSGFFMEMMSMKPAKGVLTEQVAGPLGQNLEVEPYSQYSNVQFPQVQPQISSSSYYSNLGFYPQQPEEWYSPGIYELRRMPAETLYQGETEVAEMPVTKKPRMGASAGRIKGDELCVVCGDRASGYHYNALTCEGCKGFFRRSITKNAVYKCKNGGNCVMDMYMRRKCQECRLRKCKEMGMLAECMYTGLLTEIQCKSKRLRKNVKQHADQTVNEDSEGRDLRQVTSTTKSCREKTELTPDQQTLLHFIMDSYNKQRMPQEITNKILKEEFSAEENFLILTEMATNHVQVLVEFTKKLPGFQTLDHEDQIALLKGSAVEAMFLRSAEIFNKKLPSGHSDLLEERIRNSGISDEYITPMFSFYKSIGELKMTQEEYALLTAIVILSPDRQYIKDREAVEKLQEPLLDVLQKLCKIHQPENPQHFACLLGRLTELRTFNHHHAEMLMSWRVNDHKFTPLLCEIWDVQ
# Where “and” joins values, the source holds several entries; their conditions need not be identical. Equal values may be shown once. The shares of active, inactive and inconclusive entries below differ from those in the screen. For part of these data: Where the call is inconclusive, the potency comes from a doubtful curve fit. Calls of active or inactive are those of the source. Unless noted, calls follow the shape of the full dose curve.
# How the values were obtained:
# [1] = target: Vitamin D3 receptor (Homo sapiens) (UniProt P11473); assay: qHTS assay to identify small molecule antagonists of the vitamin D receptor (VDR) signaling pathway (AID 743223; active = well fitted inhibition curve with a large enough effect in the signal ratio in the repeat runs, not every such curve was filed as active; inconclusive = weak or mixed curves, or effect the other way; inactive = no such curve, though single readings can be large or run the other way; the % refers to the signal ratio; also: % is scaled to controls: 0 for no effect and ±100 for the full control effect); conditions: VDR-UAS-bla HEK293T, beta-lactamase FRET ratio, 16 h; activity change, negative = inhibition: at 61 µM (top of the series) unless noted
# In short: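 After VDR-bla cells are plated and left 4 h at 37C, DMSO-dissolved compounds and 3 nM (final) calcitriol agonist are added. Incubation continues 16 h at 37C; FRET beta-lactamase substrate then develops 2 h at room temperature.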
# [2] = qHTS assay to identify small molecule agonists of the endoplasmic reticulum stress response signaling pathway (AID 1159516; active = well fitted activation curve with a large enough effect in the signal ratio in the repeat runs, not every such curve was filed as active; inconclusive = weak or mixed curves, or effect the other way; the % refers to the signal ratio; also: potency is read from the fitted curve at half-maximal effect); conditions: ESRE-bla HeLa, ER stress beta-lactamase reporter, 5 h; activation: at 61 µM (top of the series) unless noted
# In short: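 An ESRE-bla HeLa cell assay: compounds were pin-transferred from DMSO onto overnight-plated cells and left 5 hr at 37 C. Substrate was then loaded for 2 hr at room temperature before reading fluorescence at 460 nm and 530 nm.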
# [3] = target: Retinoic acid receptor RXR-alpha (Homo sapiens) (UniProt P19793); assay: qHTS assay to identify small molecule agonists of the RXR signaling pathway (AID 1159527); conditions: HEK293T RXRa-UAS-bla, beta-lactamase ratio, 16 h; activation: at 76.8 µM (top of the series) unless noted; also: nearly all actives have a fitted effect of over 35% in size; also: potency is read from the fitted curve at half-maximal effect; as to activation: % is scaled to controls: 0 for no effect and ±100 for the full control effect
# In short: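 Reporter activation is measured as beta-lactamase activity via FRET substrate cleavage (emission 460/530 nm) in HEK 293T cells expressing an RXR-alpha-driven bla construct, following 16 hr compound exposure at 37 C.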
# [4] = target: Peroxisome proliferator-activated receptor delta (Homo sapiens) (UniProt Q03181); assay: qHTS assay to identify small molecule antagonists of the peroxisome proliferator-activated receptor delta (PPARd) signaling pathway (AID 743215; active = well fitted inhibition curve with a large enough effect in the signal ratio in the repeat runs, not every such curve was filed as active; inconclusive = weak or mixed curves, or effect the other way; inactive = no such curve, though single readings can be large or run the other way; the % refers to the signal ratio;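 also: cells stimulated with agonist L165041 at 300 nM final during compound exposure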; also: potency is read from the fitted curve at half-maximal effect; as to ratio activity, negative = inhibition: % is scaled to controls: 0 for no effect and ±100 for the full control effect); conditions: HEK293H PPARd-UAS-bla, beta-lactamase FRET ratio, antagonist, 17 h; ratio activity, negative = inhibition: at 62 µM (top of the series) unless noted
# In short: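 HEK293H UAS-bla, PPARd; agonist L165041 300 nM final with cpd in DMSO; 37 C 17 h; FRET substrate, RT 2 h; fluorescence intensity.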
# [5] = target: Bile acid receptor (Homo sapiens) (UniProt Q96RI1); assay: qHTS assay to identify small molecule antagonists of the farnesoid-X-receptor (FXR) signaling pathway (AID 743217; active = well fitted inhibition curve with a large enough effect in the signal ratio in the repeat runs, not every such curve was filed as active; inconclusive = weak or mixed curves, or effect the other way; inactive = no such curve, though single readings can be large or run the other way; the % refers to the signal ratio; also: potency is read from the fitted curve at half-maximal effect; as to activity change, negative = inhibition: % is scaled to controls: 0 for no effect and ±100 for the full control effect); conditions: HEK293T FXR-UAS-bla, beta-lactamase ratio, CDCA-stimulated, 16 h; activity change, negative = inhibition: at 62.6 µM (top of the series) unless noted
# In short: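 GeneBLAzer FXR-UAS-bla HEK 293T, CDCA-stimulated (50 uM final). Compound treatment 16 h, 37 °C. Detection: beta-lactamase cleavage of B/G FRET substrate, fluorescence.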
# [6] = qHTS assay to identify small molecule agonists of the vitamin D receptor (VDR) signaling pathway - cell viability counter screen (AID 743224; active = well fitted cell-killing curve with a large enough effect in the repeat runs; inconclusive = weak or mixed curves, or effect the other way; inactive = no such curve, though single readings can be large or run the other way; also: nearly all actives have a fitted effect of over 50% in size; also: potency is read from the fitted curve at half-maximal effect); conditions: VDR-bla HEK293T viability, CellTiter-Glo luminescence, 16 h; activity change, negative = cytotoxicity: at 62.6 µM (top of the series)
# In short: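 Plated VDR-bla cells (4 h, 37C) received compound, incubated 16 h, then LiveBLAzer substrate 2 h RT; CellTiter-Glo added afterwards, luminescence read at 30 min.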
# [7] = target: Vitamin D3 receptor (Homo sapiens) (UniProt P11473); assay: qHTS assay to identify small molecule agonists of the vitamin D receptor (VDR) signaling pathway (AID 743222); conditions: HEK293T VDR-UAS-bla, beta-lactamase FRET ratio, 16 h; activation: at 63.5 µM (top of the series) unless noted; also: potency is read from the fitted curve at half-maximal effect
# In short: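 In VDR-bla cells, compound-induced beta-lactamase expression is quantified by FRET substrate fluorescence. Treatment lasts 16 h at 37C; substrate develops 2 h at room temperature.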
# [8] = qHTS assay to identify small molecule antagonists of the farnesoid-X-receptor (FXR) signaling pathway - cell viability counter screen (AID 743221; active = well fitted cell-killing curve with a large enough effect in the repeat runs, not every such curve was filed as active; inconclusive = weak or mixed curves, or effect the other way; inactive = no such curve, though single readings can be large or run the other way; also: nearly all actives have a fitted effect of over 50% in size; also: potency is read from the fitted curve at half-maximal effect); conditions: FXR-bla HEK293T viability, CellTiter-Glo luminescence, 16 h; activity change, negative = cytotoxicity: at 62.6 µM (top of the series)
# In short: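 CellTiter-Glo, 30 min RT, luminescence; same wells as the LiveBLAzer FRET read. Cells: FXR-UAS-bla HEK 293T. Treatment: compound with chenodeoxycholic acid 50 uM final, 16 h at 37 C.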
# [9] = qHTS assay to identify small molecule antagonists of the vitamin D receptor (VDR) signaling pathway - cell viability counter screen (AID 743225; active = well fitted cell-killing curve with a large enough effect in the repeat runs; inconclusive = weak or mixed curves, or effect the other way; inactive = no such curve, though single readings can be large or run the other way; also: % is scaled to controls: 0 for no effect and ±100 for the full control effect; nearly all actives have a fitted effect of over 50% in size); conditions: VDR-bla HEK293T viability, CellTiter-Glo luminescence, 16 h; viability change, negative = cytotoxic: at 61 µM (top of the series) unless noted
# In short: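 Cytotoxicity toward the VDR-bla HEK 293T line was scored by ATP-based CellTiter-Glo luminescence, read in the wells already used for the beta-lactamase readout after 16 h compound treatment under 3 nM 1-alpha,25-dihydroxyvitamin D3 stimulation.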
# [10] = target: Bile acid receptor (Homo sapiens) (UniProt Q96RI1); assay: qHTS assay to identify small molecule agonists of the farnesoid-X-receptor (FXR) signaling pathway (AID 743220; active = well fitted activation curve with a large enough effect in the signal ratio in the repeat runs, not every such curve was filed as active; inconclusive = weak or mixed curves, or effect the other way; the % refers to the signal ratio; also: potency is read from the fitted curve at half-maximal effect); conditions: HEK293T FXR-UAS-bla, beta-lactamase FRET ratio, 16 h; activation: at 62.6 µM (top of the series) unless noted
# In short: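 Beta-lactamase reporter under UAS control in GeneBLAzer FXR HEK 293T cells (5000/well) measured with LiveBLAzer FRET substrate after 2 h at room temperature. Compound exposure lasted 16 h at 37C.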
# [11] = qHTS assay to identify small molecule agonists of the farnesoid-X-receptor (FXR) signaling pathway - cell viability counter screen (AID 743218; active = well fitted cell-killing curve with a large enough effect in the repeat runs; inconclusive = weak or mixed curves, or effect the other way; inactive = no such curve, though single readings can be large or run the other way; also: nearly all actives have a fitted effect of over 45% in size; also: potency is read from the fitted curve at half-maximal effect); conditions: FXR-bla HEK293T viability, CellTiter-Glo luminescence, 16 h; viability change, negative = cytotoxic: at 62.6 µM (top of the series) unless noted
# In short: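 Parallel cytotoxicity test: compound-treated (16 h, 37 C) HEK 293T FXR-bla reporter cells were lysed with CellTiter-Glo and luminescence recorded.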
compound,measurement,setting,value
C=CCOC(=O)C(=C)C,Potency,[1],inactive
same,Potency,[2],"inconclusive: 0.114 µM [rising, full curve, poor fit]"
same,Potency,[3],inconclusive: 64.2 µM [activator] and inactive
c1ccc2ccccc2c1,Potency,[4],inactive
same,Potency,[5],inactive
same,Potency,[6],"inconclusive: 61.6 µM [rising, partial curve, poor fit]"
same,activation,[2],inconclusive: 10.2%
same,Potency,[3],"inconclusive: 21.8 µM [activator, partial curve, poor fit] and inconclusive: 24.5 µM [activator]"
CCc1ccc2c(c1)C(=O)c1ccccc1C2=O,"activity change, negative = inhibition",[1],inconclusive: 13.6%
same,Potency,[2],inactive
same,Potency,[3],"inconclusive: 54.9 µM [rising, partial curve, poor fit]"
O=C(O)CP(=O)(O)O,"ratio activity, negative = inhibition",[4],inconclusive: -10.9%
same,Potency,[7],inconclusive: 33.5 µM [activator]
same,Potency,[1],inactive
same,Potency,[6],"inconclusive: 0.841 µM [cytotoxic, partial curve, poor fit]"
same,Potency,[2],inactive
same,Potency,[3],inactive
CC/C=C\CCO,Potency,[5],inactive
same,Potency,[8],inactive
same,"activity change, negative = inhibition",[1],inconclusive: -9.56%
same,Potency,[2],inactive
same,Potency,[3],"inconclusive: 24.5 µM [activator, partial curve]"
CC(CO)(CO)[N+](=O)[O-],"ratio activity, negative = inhibition",[4],inconclusive: 10.1%
same,"activity change, negative = inhibition",[1],inconclusive: 23.5%
same,Potency,[2],inactive
same,Potency,[3],inactive
CCCCC(CC)COC(=O)/C=C\C(=O)OCC(CC)CCCC (configuration not stated),Potency,[4],inactive
same,Potency,[8],"inconclusive: 54.9 µM [rising, single point]"
same,Potency,[1],inactive
same,Potency,[9],inactive
same,Potency,[2],"inconclusive: 38.9 µM [falling, single point]"
same,Potency,[3],inactive
CCC(COC(=O)CCS)(COC(=O)CCS)COC(=O)CCS,Potency,[7],inactive
same,Potency,[2],"inconclusive: 30.9 µM [falling, partial curve]"
same,Potency,[3],inactive
CC(C)OC(=O)C(O)(CC(=O)O)CC(=O)O,Potency,[4],"inconclusive: 17.4 µM [rising, partial curve, poor fit]"
same,Potency,[5],inactive
same,Potency,[8],"inconclusive: 3.09 µM [rising, full curve, poor fit]"
same,activation,[2],inconclusive: -0.195%
same,Potency,[3],active: 21.9 µM
CC[C@@H](N)CO,Potency,[1],inactive
same,Potency,[2],inactive
same,Potency,[3],inactive
CC(C)c1ccccc1O,Potency,[10],"inconclusive: 54.9 µM [activator, partial curve, poor fit]"
same,Potency,[2],inactive
same,Potency,[3],inactive
O=c1c(-c2ccc(O)cc2)coc2cc(O)ccc12,Potency,[5],"inconclusive: 54.4 µM [inhibitor, single point]"
same,Potency,[2],"inconclusive: 1.93 µM [rising, partial curve, poor fit]"
same,activation,[3],inconclusive: -26.7%
COc1ccc2nc(N)sc2c1,Potency,[7],inactive
same,activation,[2],inconclusive: 3.48%
same,activation,[3],inconclusive: 17.3% and inconclusive: 3.88%
CN(C)Cc1ccccc1O,Potency,[11],inactive
same,Potency,[7],inactive
same,Potency,[2],"inconclusive: 2.75 µM [falling, full curve, poor fit]"
same,Potency,[3],inactive
O=C1CCCCC1,Potency,[8],"inconclusive: 23 µM [falling, single point]"
same,Potency,[7],inactive
same,activation,[2],inconclusive: 2.19% [at 78.8 µM]
same,activation,[3],inconclusive: 23.5%
C=Cc1ccccc1C=C,Potency,[11],inactive
same,activation,[2],inconclusive: 1.26% [at 216 µM]
same,Potency,[3],"inconclusive: 123 µM [activator, partial curve, poor fit]"
C=CCOCC(CO)(COCC=C)COCC=C,Potency,[11],"inconclusive: 1.11 µM [rising, partial curve, poor fit]"
same,Potency,[1],inactive
same,Potency,[2],inactive
same,Potency,[3],inactive
COc1ccc(-n2nc(C(F)F)cc2-c2ccc(S(C)=O)cc2)cc1 (configuration not stated),"ratio activity, negative = inhibition",[4],inconclusive: 5.56%
same,Potency,[11],inactive
same,Potency,[7],"inconclusive: 6.92 µM [rising, full curve, poor fit]"
same,"activity change, negative = inhibition",[1],inconclusive: 22.8%
same,Potency,[9],inactive
same,Potency,[2],inconclusive: 0.0012 µM [inhibitor]
same,Potency,[3],"inconclusive: 24.5 µM [partial curve, poor fit]"
O=C(CS(=O)Cc1ccco1)NC/C=C\COc1cc(CN2CCCCC2)ccn1 (configuration not stated),Potency,[5],inactive
same,Potency,[2],inactive
same,Potency,[3],inactive
CCCCCCCCCCCCCCN(C)C,Potency,[6],"inconclusive: 13.2 µM [cytotoxic, partial curve, poor fit]"
same,Potency,[2],"inconclusive: 0.264 µM [falling, single point]"
same,activation,[3],inactive: 7.58% [at 15.8 µM]
CCN(CC)CCNC(=O)COc1ccc(OC)cc1,"ratio activity, negative = inhibition",[4],inconclusive: 5.39%
same,Potency,[1],inactive
same,Potency,[2],"inconclusive: 26.8 µM [activator, single point]"
same,Potency,[3],inactive
CC(=O)c1ccc[nH]1,Potency,[6],inactive
same,Potency,[2],"inconclusive: 61.6 µM [rising, partial curve, poor fit]"
same,activation,[3],inconclusive: 19.5%

# Six consecutive entries from above, for reference:
compound,measurement,setting,value
CC/C=C\CCO,Potency,[8],inactive
same,"activity change, negative = inhibition",[1],inconclusive: -9.56%
same,Potency,[2],inactive
same,Potency,[3],"inconclusive: 24.5 µM [activator, partial curve]"
CC(CO)(CO)[N+](=O)[O-],"ratio activity, negative = inhibition",[4],inconclusive: 10.1%
same,"activity change, negative = inhibition",[1],inconclusive: 23.5%
